These are yes or no findings as the source states them, for the method shown. Binding seen in cells or lysates may run through a third protein. Here binding means that the protein was enriched with, or labelled near, the bait; the list need not be complete. A no says only that the protein was not detected with the bait. Tags and fused reporters may be left off the sequences shown.
Target: T1, 3×FLAG-Hand2 (zebrafish) (UniProt P57102)
T1 sequence: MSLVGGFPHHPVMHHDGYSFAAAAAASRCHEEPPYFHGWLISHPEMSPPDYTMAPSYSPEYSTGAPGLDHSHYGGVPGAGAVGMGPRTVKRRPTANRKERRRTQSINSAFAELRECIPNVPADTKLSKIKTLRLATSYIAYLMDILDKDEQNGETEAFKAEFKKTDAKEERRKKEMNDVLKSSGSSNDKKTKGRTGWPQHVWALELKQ
Experiment: affinity purification with mass spectrometry; CoIP–MS: lysate of 400 deyolked 14 hpf embryos injected with 3×FLAG-hand2 or 3×FLAG-hand2 EDE mRNA; 800 μg soluble fraction on anti-FLAG M2 magnetic beads, 4 °C overnight; CoIP buffer 50 mM Tris–HCl pH 7.5, 150 mM NaCl, 1 mM EDTA, 1% Triton X-100; washed three times with TBS; background control 3×HA-hand2 mRNA-injected embryos

| binding | Substance |
| --- | --- |
| binds | Tcf3b (zebrafish (endogenous in embryos)) |
| no binding | transcription factor 3a (Tcf3a) (zebrafish (endogenous in embryos)) |

Source: paper PMC11634778
